# Test results from PubChem BioAssay AID720522 (National Center for Advancing Translational Sciences (NCATS), 2013).
# By UniProt entry, the sequences of proteins in these tests, tags left out.
# UniProt P08659, whole entry, looked up: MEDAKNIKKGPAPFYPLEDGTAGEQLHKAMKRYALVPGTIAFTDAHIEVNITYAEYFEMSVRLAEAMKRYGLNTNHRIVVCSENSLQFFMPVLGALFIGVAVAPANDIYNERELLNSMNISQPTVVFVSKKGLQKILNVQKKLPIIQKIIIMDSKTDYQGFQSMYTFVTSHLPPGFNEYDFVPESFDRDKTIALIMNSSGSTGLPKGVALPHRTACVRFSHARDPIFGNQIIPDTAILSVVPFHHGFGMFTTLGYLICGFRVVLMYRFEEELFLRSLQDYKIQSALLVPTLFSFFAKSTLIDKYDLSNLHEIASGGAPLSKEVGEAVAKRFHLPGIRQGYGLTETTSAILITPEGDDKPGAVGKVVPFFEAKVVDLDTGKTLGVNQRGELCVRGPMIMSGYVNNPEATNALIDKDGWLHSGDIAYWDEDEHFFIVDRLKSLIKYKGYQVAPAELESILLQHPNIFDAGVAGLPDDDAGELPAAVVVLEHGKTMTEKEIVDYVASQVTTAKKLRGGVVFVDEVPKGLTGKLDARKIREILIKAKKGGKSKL
# Hit rate of the full screen: of about 1,400 compounds, about 60 (4%) were called active. A call without a number means that no potency is given here. The inconclusive results got no clear call from the source; some entries with a clear call stand among them for comparison. Calls come from the whole dose curve; as a rule, active = well fitted inhibition curve with a large enough effect; inconclusive = small, poorly fitted or top-dose-only effect; inactive = flat fitted curve, though single readings scatter. A potency beside an inconclusive call is a rough fit, not a confirmed value.
# Target: Luciferin 4-monooxygenase (Photinus pyralis) (UniProt P08659)
# Test: Nrf2 qHTS screen for inhibitors: Purified Fluc Biochemical Counterscreen for Hit Validation; note: nearly all actives have a fitted effect of over 65% in size
# Conditions: purified firefly luciferase, luminescence inhibition; series mostly up to 57.5 µM
# Text: Nrf2 is a transcription factor that maintains cellular redox homoestasis and protects cells from xenobiotics. Nrf2 binds to the antioxidant response element (ARE) to induce gene expression of a broad spectrum of genes that encode for antioxidants. […] Finding a small molecule that act as an inhibitor of Nrf2 function would represent a novel therapeutic target that could lead to improvement in survival of patients undergoing chemo- and/or radio- therapy.
# A biochemical assay in 1536 well format was developed and utilized to remove compounds that inhibit the luciferase reporter (Fluc) rather than the Nrf2 enzyme. Inhibition of this assay = false positive inhibition of Nrf2.
# NIH Chemical Genomics Center [NCGC]
# NIH Molecular Libraries Probe Centers Network [MLPCN]
# Assay Submitter (PI): Shyam Biswal, Johns Hopkins University
# [1] Shibata T., et al., Genetic alteration of Keap1 confers constitutive Nrf2 activation and resistance to chemotherapy in gallbladder cancer. Gastroenterology, 2008.
# [2] Sjoblom T., et al., The consensus coding sequences of human breast and colorectal cancers. Science, 2006.
# Three microliter of substrate solution containing 50mM Tris acetate, 13.3 mM Mg-acetate, 0.01mM ATP, 0.01% Tween, 0.05% BSA and 0.01mM D-Luciferin (Sigma, #L9504) was dispensed into 1536 well white solid bottom assay plate (Greiner Bio, #789173-F). Twenty-three nanoliter of compounds dissolved in DMSO at different concentrations was added to the plate using a Kalypsys 1536-pin tool. Then 1 uL of firefly luciferase reagent containing 50mM Tris-acetate and 0.04uM P. pyralis luciferase (Sigma, #L9506) was added. The final DMSO concentration was maintained at 0.56%. Luminescence signal was acquired using the PerkinElmer Viewlux plate reader after incubation at room temperature for 10 minutes.
# Potency is the fitted concentration of half-maximal effect.
row,Structure (SMILES),Potency
1,CCC(=NCCc1c[nH]c2ccccc12)c1c(O)n(C)c(=O)n(C)c1=O,inactive
2,C=C1C(=O)O[C@@H]2C[C@@H](C)[C@@H]3C=CC(=O)[C@@]3(C)[C@@H](OC(=O)CC(=O)O[C@H]3[C@@H]4C(=C)C(=O)O[C@@H]4C[C@@H](C)[C@@H]4C=CC(=O)[C@]43C)[C@H]12,"inconclusive: 9.53 µM [inhibitor, partial curve]"
3,CC1Oc2cc3c(-c4c(O)cc(O)c5c(O)c6c(cc45)OC(C)C(C)C6=O)c(O)cc(O)c3c(O)c2C(=O)C1C (stereo not given),inactive
4,C[n+]1ccc(-c2ccccc2)c2ccccc21,inactive
5,C[C@@H]1O[C@@H](O[C@@H]2C=C3CC[C@@H]4[C@@H](CC[C@]5(C)[C@H](c6ccc(=O)oc6)CC[C@@]45O)[C@@]3(C)CC2)[C@H](O)[C@H](O)[C@H]1O,inactive
